PubChem BioAssay (NCI)
Most of the hits are listed elsewhere, so they are rarer here than in the full data. The source made the active and inactive calls. No stated cut-off is given here; in the data, active means growth inhibition above about 70%; inactive means the rest.

What was measured:
[1] = NCI Yeast Anticancer Drug Screen. Data for the rad52 strain (AID 147);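 further: 0% = growth of vehicle-treated control cultures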; settings: S. cerevisiae rad52 mutant growth inhibition, hits give high values
Method in brief: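 Here a repair-compromised yeast strain receives each compound; its growth is then quantified and normalised to vehicle-only controls.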

[2] = NCI Yeast Anticancer Drug Screen. Data for the wt1 strain (AID 149);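 further: 0% = growth of vehicle-treated wt1 cultures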; settings: S. cerevisiae wt1 strain (SPY 50644) growth inhibition, hits give high values
Method in brief: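 Using yeast strain wt1, compound-induced growth inhibition was determined against vehicle-treated cultures.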

[3] = NCI Yeast Anticancer Drug Screen. Data for the rad50EPP+ strain (AID 151);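 further: 0% = growth of vehicle-treated control cultures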; settings: S. cerevisiae rad50 mutant strain, hits give high values
Method in brief: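 Read-out is yeast growth inhibition relative to vehicle; cells used were the rad50EPP+ strain.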

[4] = NCI Yeast Anticancer Drug Screen. Data for the mgt1 strain (AID 153); settings: S. cerevisiae mgt1 mutant growth inhibition, hits give high values
Method in brief: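 Measured: inhibition of mgt1 yeast growth by compound, normalized to vehicle-treated cultures.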

[5] = NCI Yeast Anticancer Drug Screen. Data for the rad14 strain (AID 159);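 further: 0% = growth of vehicle-treated control cultures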; settings: S. cerevisiae rad14 strain growth inhibition, hits give high values
Method in brief: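 Screen for anticancer potential: a yeast strain altered in DNA damage repair is grown with compound, and reduced growth is quantified against vehicle controls.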

[6] = NCI Yeast Anticancer Drug Screen. Data for the CLN2oe strain (AID 163);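 further: 0% = growth of vehicle-only control cultures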; settings: S. cerevisiae CLN2oe strain, hits give high values
Method in brief: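 Whole-cell yeast growth assay. A strain engineered for altered cell-cycle control received compound, and inhibition relative to vehicle-treated cultures was recorded.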

[7] = NCI Yeast Anticancer Drug Screen. Data for the wt2 strain (AID 169);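 further: 0% = growth of vehicle-treated yeast cultures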; settings: S. cerevisiae wt2 strain growth inhibition, hits give high values
Method in brief: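 Treated yeast vs. vehicle-treated yeast: growth inhibition determined.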

[8] = NCI Yeast Anticancer Drug Screen. Data for the mlh1 strain (AID 171);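 further: 0% = growth of vehicle-treated control cultures of the same strain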; settings: S. cerevisiae mlh1 strain growth inhibition, hits give high values
Method in brief: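 A yeast strain with a defined genetic lesion serves as the test organism. Cultures receive compound or vehicle, and growth is measured.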

[9] = NCI Yeast Anticancer Drug Screen. Data for the sgs1 strain (AID 173);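 further: 0% = growth of vehicle-only control cultures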; settings: S. cerevisiae sgs1 mutant, hits give high values
Method in brief: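 A genetically defined yeast mutant is incubated with the test compound, and its growth is compared to that of the same strain given vehicle.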

[10] = NCI Yeast Anticancer Drug Screen. Data for the rad18 strain (AID 177); settings: S. cerevisiae rad18 mutant growth inhibition, hits give high values
Method in brief: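 Measured value is growth inhibition of a yeast strain bearing a DNA repair alteration, referenced to vehicle-treated cells.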

Measured: growth inhibition

N#CC(=Nc1ccc(F)cc1)Nc1ccc(F)cc1
inactive: [1]; at 1.2 µM -1% | [1]; at 3.7 µM -2% | [1]; at 11.0 µM 0% | [1]; at 33.0 µM 6% | [1]; at 100.0 µM 2% | [2]; at 1.2 µM -5% | [2]; at 3.7 µM -3% | [2]; at 11.0 µM -10% | [2]; at 33.0 µM -10% | [2]; at 100.0 µM -9% | [3]; at 1.2 µM 9% | [3]; at 3.7 µM 18% | [3]; at 11.0 µM 28% | [3]; at 33.0 µM 33% | [3]; at 100.0 µM 23% | [4]; at 1.2 µM -4% | [4]; at 3.7 µM -4% | [4]; at 11.0 µM -3% | [4]; at 33.0 µM 4% | [4]; at 100.0 µM -5% | [5]; at 1.2 µM -4% | [5]; at 3.7 µM -3% | [5]; at 11.0 µM -6% | [5]; at 33.0 µM 11% | [5]; at 100.0 µM 8% | [6]; at 1.2 µM 2% | [6]; at 3.7 µM -3% | [6]; at 11.0 µM 3% | [6]; at 33.0 µM 12% | [6]; at 100.0 µM 12% | [7]; at 1.2 µM -2% | [7]; at 3.7 µM -2% | [7]; at 11.0 µM -4% | [7]; at 33.0 µM 1% | [7]; at 100.0 µM -2% | [8]; at 1.2 µM -1% | [8]; at 3.7 µM -6% | [8]; at 11.0 µM -5% | [8]; at 33.0 µM 1% | [8]; at 100.0 µM -1% | [9]; at 1.2 µM -4% | [9]; at 3.7 µM -5% | [9]; at 11.0 µM -5% | [9]; at 33.0 µM 18% | [9]; at 100.0 µM 7% | [10]; at 1.2 µM -3% | [10]; at 3.7 µM -7% | [10]; at 11.0 µM -8% | [10]; at 33.0 µM 1% | [10]; at 100.0 µM -2%

O=C1Nc2ccccc2NC1C1OC(c2ccccc2)=CC1=O (stereo not given)
inactive: [1]; at 1.2 µM 18% | [1]; at 3.7 µM 34% | [1]; at 11.0 µM 32% | [1]; at 33.0 µM 19% | [1]; at 100.0 µM 20% | [3]; at 1.2 µM 42% | [3]; at 3.7 µM 37% | [3]; at 11.0 µM 37% | [3]; at 33.0 µM 22% | [3]; at 100.0 µM 20% | [5]; at 1.2 µM 18% | [5]; at 3.7 µM 23% | [5]; at 11.0 µM 20% | [5]; at 33.0 µM 18% | [5]; at 100.0 µM 14% | [6]; at 1.2 µM -15% | [6]; at 3.7 µM 1% | [6]; at 11.0 µM -9% | [6]; at 33.0 µM 5% | [6]; at 100.0 µM 23% | [7]; at 1.2 µM -18% | [7]; at 3.7 µM -11% | [7]; at 11.0 µM -11% | [7]; at 33.0 µM -8% | [7]; at 100.0 µM -2% | [8]; at 1.2 µM 32% | [8]; at 3.7 µM 39% | [8]; at 11.0 µM 44% | [8]; at 33.0 µM 1% | [8]; at 100.0 µM 36% | [9]; at 1.2 µM 14% | [9]; at 3.7 µM 23% | [9]; at 11.0 µM 29% | [9]; at 33.0 µM 30% | [9]; at 100.0 µM 18% | [10]; at 1.2 µM 26% | [10]; at 3.7 µM 23% | [10]; at 11.0 µM 17% | [10]; at 33.0 µM 24% | [10]; at 100.0 µM 16%

C=C(NC(=O)C(NC(=O)C(CCCCN)NC(=O)C1CSC(C)C2NC(=O)C(CC(C)C)NC(=O)C(NC(=O)C(CCC(N)=O)NC(=O)C(CC(C)C)NC(=O)C(Cc3ccccc3)NC(=O)C3CSC(C)C(NC(=O)C(NC(=O)C4CSC(C)C(NC(=O)C5CSCC(NC(=O)C(CCCCN)NC(=O)C(N)Cc6c[nH]c7ccccc67)C(=O)NC(CCC(=O)O)C(=O)NC(=C)C(=O)NC(CC(C)C)C(=O)N5)C(=O)N5CCCC5C(=O)NCC(=O)N4)C(C)C)C(=O)NCC(=O)NC(C)C(=O)NC(CC(C)C)C(=O)NC(CCC(N)=O)C(=O)N/C(=C/C)C(=O)N3)C(C)SCC(NC2=O)C(=O)NC(CC(N)=O)C(=O)N1)C(C)CC)C(=O)NC(CCCCN)C(=O)O (stereo not given)
inactive: [1]; at 1.2 µM -1% | [1]; at 3.7 µM -2% | [1]; at 11.0 µM -4% | [1]; at 33.0 µM -5% | [1]; at 100.0 µM -6% | [2]; at 1.2 µM -3% | [2]; at 3.7 µM -1% | [2]; at 11.0 µM 1% | [2]; at 33.0 µM -44% | [2]; at 100.0 µM 0% | [3]; at 1.2 µM 1% | [3]; at 3.7 µM 4% | [3]; at 11.0 µM 3% | [3]; at 33.0 µM -7% | [3]; at 100.0 µM -1% | [4]; at 1.2 µM -1% | [4]; at 3.7 µM -8% | [4]; at 11.0 µM -3% | [4]; at 33.0 µM -6% | [4]; at 100.0 µM -10% | [5]; at 1.2 µM 1% | [5]; at 3.7 µM 3% | [5]; at 11.0 µM 4% | [5]; at 33.0 µM 1% | [5]; at 100.0 µM 4% | [6]; at 1.2 µM 1% | [6]; at 3.7 µM 1% | [6]; at 11.0 µM 0% | [6]; at 33.0 µM 9% | [6]; at 100.0 µM 6% | [7]; at 1.2 µM -1% | [7]; at 3.7 µM -3% | [7]; at 11.0 µM -5% | [7]; at 33.0 µM -5% | [7]; at 100.0 µM -9% | [8]; at 1.2 µM -2% | [8]; at 3.7 µM -3% | [8]; at 11.0 µM -4% | [8]; at 33.0 µM -5% | [8]; at 100.0 µM -12% | [9]; at 1.2 µM -1% | [9]; at 3.7 µM -1% | [9]; at 11.0 µM 0% | [9]; at 33.0 µM -2% | [9]; at 100.0 µM -11% | [10]; at 1.2 µM -2% | [10]; at 3.7 µM -2% | [10]; at 11.0 µM -1% | [10]; at 33.0 µM -2% | [10]; at 100.0 µM -6%

COc1ccc2c(c1)N(CCC1CCCCN1C)c1ccccc1S2 (stereo not given)
inactive: [1]; at 1.2 µM -3% | [1]; at 3.7 µM -4% | [1]; at 11.0 µM -6% | [1]; at 33.0 µM -6% | [1]; at 100.0 µM 23% | [2]; at 1.2 µM 0% | [2]; at 3.7 µM -1% | [2]; at 11.0 µM -2% | [2]; at 33.0 µM -6% | [2]; at 100.0 µM 3% | [3]; at 1.2 µM -7% | [3]; at 3.7 µM -7% | [3]; at 11.0 µM -10% | [3]; at 33.0 µM -12% | [3]; at 100.0 µM -13% | [4]; at 1.2 µM -2% | [4]; at 3.7 µM 0% | [4]; at 11.0 µM -2% | [4]; at 33.0 µM -3% | [4]; at 100.0 µM 27% | [5]; at 1.2 µM -2% | [5]; at 3.7 µM -3% | [5]; at 11.0 µM 3% | [5]; at 33.0 µM 0% | [5]; at 100.0 µM 67% | [6]; at 1.2 µM -7% | [6]; at 3.7 µM 0% | [6]; at 11.0 µM -2% | [6]; at 33.0 µM 3% | [6]; at 100.0 µM 39%
